# PubChem BioAssay AID686937 | Drosophila RNAi Screening Center, 2013
# Screen: 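Genes whose loss weakens secretory pathway function in fly cells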 (primary screen)
# Cell system: Drosophila S2 cells expressing secreted horseradish peroxidase
# Reagents: long dsRNA against Drosophila genes
# Duration: about 5.5 days (5 days dsRNA, then 12 h reporter induction)
# Conditions: reporter expression induced after 5 days of dsRNA, read 12 h later; inducer not stated
# Measurement: 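After 5 days of dsRNA and 12 h of reporter induction, medium peroxidase read by chemiluminescence and scored as per-plate z-score; higher values mean more reporter released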
# Reading the numbers: z-score: higher = more reporter secreted into medium
# The screen tested about 23,000 reagents; shown is a random part of those with a known target gene and a result. 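Reduced-secretion tags in replicate 1 do not always agree with the z-scores; no criterion for assigning the tags was given.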 The numbers tell different reagents against one gene apart. Not all columns of the deposit are shown. Not stated in the record: the amount of reagent.
target gene,dsRNA no.,"z-score, replicate 1","z-score, replicate 2"
mtTFB2 (mitochondrial transcription factor B2),1,0.46,0.97
CG30036,1,0.56,-0.21
mxc (multi sex combs),1,0.52,0.59
Rrp47 (Ribosomal RNA processing 47),1,0.22,0.2
CG13361,1,0.38,0.38
CG2124,1,0.31,0.47
Lpt (Lost PHDs of trr),1,0.03,0.13
Lpt (Lost PHDs of trr),2,-0.09,-0.34
Bet1 (Blocked early in transport 1),1,-5.3,-4.94
CG32793,1,0.3,0.23
CG32793,2,0.28,0.31
CG3323,1,0.28,0.43
CG34447,1,0.1,0.05
Osi14 (Osiris 14),1,0.4,-0.1
mod (modulo),1,0.22,0.37
sas (stranded at second),1,0.01,0.27
Tom (Twin of m4),1,0.59,0.58
ND5 (retired record),1,0.25,0.43
CG32121,1,0.45,0.31
Pcif1 (Phosphorylated CTD-interacting factor 1),1,0.27,0.03
CG42324,1,0.21,0.27
CG42324,2,0.18,0.19
CG34354,1,0.41,0.14
CG34354,2,-2.99,-2.54
CG34354,3,-3.93,-3.45
CG34354,4,0.3,0.27
Snx3 (Sorting nexin 3),1,0.23,0.11
Ubc4 (Ubiquitin conjugating enzyme 4),1,0.56,0.37
CG13284,1,0.62,0.3
Shc (SHC-adaptor protein),1,-1.33,-0.54
Or67d (Odorant receptor 67d),1,-0.02,0.24
Galk (Galactokinase),1,0.14,0.31
Pop4 (POP4 ribonuclease P/MRP subunit),1,0.22,0.27
